In all, about 320,000 compounds went through this assay and about 2,100 (0.66%) were called active. Inconclusive means that the source gave no clear call. Such entries were picked first, then a sample of the others. Calls follow the shape of the dose curve; as a rule, active = well fitted inhibition curve with a large enough effect in the signal ratio, with a control signal flat (not every such curve was filed as active); inconclusive = small, poorly fitted or top-dose-only effect, or effect the other way, or a change in a side signal; inactive = flat fitted curve, though single readings scatter; the % refers to the signal ratio. A potency beside an inconclusive call is a rough fit, not a confirmed value.
Assay: qHTS Assay for Lipid Storage Modulators in Drosophila S3 Cells
Details: BODIPY lipid droplet fluorescence, 18-24 h, cells fed with added oleic acid; lipid storage change, negative = inhibition: at 46.1 µM (top of the series) unless noted
In short: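 Laser-scanning cytometry quantifies lipid droplet accumulation (500–530 nm total intensity; droplet/cell object ratio) in oleic acid-fed (400 uM added) Drosophila S3 cells treated with a concentration series. 20 uM Triacsin C defined 100% inhibition.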
% is scaled to controls: 0 for no effect and ±100 for the full control effect; potency is read from the fitted curve at half-maximal effect.

Structure (SMILES) | lipid storage change, negative = inhibition | Potency | outcome
CC1Sc2ccc(C(=O)OCc3ccccc3Cl)cc2NC1=O (stereo not drawn) | inconclusive | – | –
CC(C)C[C@H]1CN=C(Nc2ccccc2)N1CC1CCC(C)CC1 (stereo partly drawn) | inconclusive: -13.3% | – | –
CCOC(=O)c1nc2ccccc2c(C)c1C | inconclusive: 29.5% | – | –
c1ccc(CNc2ccc3ccccc3n2)nc1 | – | inconclusive: 1.84 µM [cytotoxic, partial curve] | –
O=C(c1csc2ccccc12)N1CCN(c2ccccn2)CC1 | inconclusive: 1.36% | – | –
O=C(c1cccc2ccccc12)N1CCCCC1 | – | active: 8.2 µM | –
CC(OC(=O)C1CCN(S(=O)(=O)c2ccc(Cl)cc2)CC1)C(=O)NC1CCCCC1C (stereo not drawn) | inconclusive: -16% | – | –
CCOC(=O)C1=C(COC(=O)CSc2ccc(Br)cc2)NC(=O)NC1C (stereo not drawn) | inconclusive: 30.6% [at 0.0737 µM] | – | –
CC1CC2(CC(C)(C(=O)CSc3nc4ccccc4s3)OC2=O)C(=O)O1 (stereo not drawn) | inconclusive: 31.1% | – | –
COc1ccc(-n2c(=S)[nH]c3cc(C(=O)N4CCN(c5ccccc5)CC4)ccc3c2=O)cc1 | – | inconclusive: 20.6 µM [falling, single point] | –
Cc1ccc(C2OC(=O)C=C2c2ccccc2)cc1 (stereo not drawn) | inconclusive: -49.4% | – | –
CCc1cccc(NC(=O)CSc2nc3c(c(=O)[nH]2)CCCC3)c1 | inconclusive: 0.786% | – | –
O=C(NCC1CCN(C(=O)c2c(F)c(F)c(F)c(F)c2F)CC1)c1c(F)c(F)c(F)c(F)c1F | – | inconclusive: 2.06 µM [falling, partial curve, poor fit] | –
CCN(Cc1nc2cc(Cl)ccc2c(=O)[nH]1)C(=O)c1cc(C2CC2)nn1-c1ccccc1 | inconclusive: -44.2% | – | –
c1ccc(CCNc2ncnc3c2cnn3-c2ccccc2)cc1 | inconclusive: -16.2% | – | –
CC(Sc1nc(-c2ccccc2)cc(C(F)(F)F)n1)C(=O)Nc1sc2c(c1C(N)=O)CCC2 (stereo not drawn) | inconclusive: 18% | – | –
O=c1oc(-c2cccnc2)nc2ccccc12 | – | inconclusive: 1.16 µM [falling, partial curve] | –
COc1cccc(-c2nc(CS(=O)(=O)CC(=O)NC3CCCc4ccccc43)c(C)o2)c1 (stereo not drawn) | inconclusive: 10.3% | – | –
Cc1noc(C)c1S(=O)(=O)N(CC(=O)NCc1ccc(F)cc1)c1ccc(C(C)C)cc1 | – | inconclusive: 23.1 µM [falling, single point] | –
Cc1cc(C)nc(SCC(=O)OCC(=O)N(C)c2c(N)n(Cc3ccccc3)c(=O)[nH]c2=O)n1 | – | inconclusive: 29.1 µM [activator, single point] | –
N#CC1=C(N)C(C#N)(C#N)[C@H](c2ccncc2)[C@H]2CN(C(=O)OCc3ccccc3)CC=C12 | – | inconclusive: 14.6 µM [falling, single point] | –
Nn1cc(-c2ccccc2)nc1SCC(=O)NCCc1ccccc1 | inconclusive: 53.6% | – | –
CC(OC(=O)C1CCCC1)C(=O)Nc1ccc(S(N)(=O)=O)cc1 (stereo not drawn) | inconclusive | – | –
Cc1cc(Cl)cc(C)c1OCCCCN1CCOCC1 | inconclusive: -9% | – | –

Structure (SMILES) | lipid storage change, negative = inhibition | Potency | outcome
Cc1ccc(S(=O)(=O)N(C)c2ccc(NS(C)(=O)=O)cc2)cc1 | inconclusive: 16.7% | – | –
Cc1ccc(-c2nn(C(C)(C)C)c3ncnc(NS(=O)(=O)c4ccc([N+](=O)[O-])cc4)c23)cc1 | inconclusive: 6% | – | –
CCc1ccc(/C=C2\SC(=S)N(CCCC(=O)Nc3ccc(C(=O)O)cc3)C2=O)cc1 | – | inconclusive: 29.1 µM [falling, single point] | –
CC(=O)N1CCCN(C(=O)c2ccc3nc(Cc4ccccc4F)oc3c2)CC1 | – | inconclusive: 32.6 µM [activator, single point] | –
CN(C)S(=O)(=O)N1CCN(C(=O)N(c2ccccc2)c2ccccc2)CC1 | – | inconclusive: 0.259 µM [activator, full curve] | –
C=CCNC(=O)COc1cc(C)ccc1C | – | inconclusive: 0.082 µM [falling, full curve, poor fit] | –
CCc1ccccc1NC(=O)CSc1nnc(CCNC(=O)OC(C)(C)C)o1 | inconclusive: 18.4% | – | –
CC1C(=O)Nc2ccccc2N1C(=O)c1ccc(F)cc1F (stereo not drawn) | – | inconclusive: 0.651 µM [falling, partial curve, poor fit] | –
CC(C)(C)c1ccc(S(=O)(=O)/N=C2\C=C(NS(=O)(=O)c3ccccc3)C(=O)c3ccccc32)cc1 | – | – | inactive [at 46.1 µM]
O=c1cc(-c2ccccc2)[nH]c2cc(F)ccc12 | inconclusive: -6.33% | – | –
O=C(c1ccco1)c1cn(CC(=O)N2CCCCCC2)c2ccccc12 | inconclusive: -24.2% [at 9.22 µM] | – | –
CC(C)OCCCNc1ncc2c(n1)CC(c1ccc(N(C)C)cc1)CC2=O (stereo not drawn) | – | inconclusive: 3.26 µM [activator, partial curve] | –
Cn1c(=O)c2c(nc(Oc3ccccc3Br)n2C)n(C)c1=O | inconclusive: 16.2% | – | –
Cc1ccc(C(C(=O)NC2CCCC2)N(C(=O)c2csnn2)C2CCCC2)o1 (stereo not drawn) | inconclusive: -39.3% | – | –
CCCc1cc(C(=O)Nc2cnn(Cc3ccc(F)cc3)c2)no1 | inconclusive: 11.3% | – | –
CC(C)NC(=S)N1CCN(S(=O)(=O)c2cccc(C(F)(F)F)c2)CC1 | inconclusive: -15.2% | – | –
NC(=O)c1ccc[n+](CC(=O)OCCC23CC4CC(CC(C4)C2)C3)c1 | inconclusive: -20.1% | – | –
C=CCNC(=S)N1CC2(C)CN(C(=S)NCC=C)CC(C)(C1)C2=O | inactive: -3.79% | – | –
CN(NC(=O)c1ccc(Cl)cc1)c1ncc(C(F)(F)F)cc1Cl | inconclusive: 9.55% | – | –
CC(C)C(=O)N1CCN(c2ccc(NC(=S)NC(=O)c3cc4ccccc4o3)cc2)CC1 | – | inconclusive: 29.1 µM [rising, single point] | –
O=C(CSc1nnc(CCCN2C(=O)c3cccc4cccc(c34)C2=O)n1-c1ccccc1)NCCCN1CCOCC1 | inconclusive: 5.04% | – | –
O=C(Nc1nnc(-c2ccccc2Cl)o1)c1ccc(S(=O)(=O)N2CCCCCC2)cc1 | inconclusive: 23.8% | – | –
Cc1cc(-n2c(C)cc(C(=O)CSc3nncn3C(C)C)c2C)no1 | inconclusive | – | –
CC1Cc2nc(SCC(=O)N3CCCC3)n(C)c(=O)c2S1 (stereo not drawn) | inconclusive: 35% | – | –

13 of these compounds, set out differently.

| Structure (SMILES) | lipid storage change, negative = inhibition | Potency | outcome |
| --- | --- | --- | --- |
| C=CCNC(=O)COc1cc(C)ccc1C | – | inconclusive: 0.082 µM [falling, full curve, poor fit] | – |
| CCc1ccccc1NC(=O)CSc1nnc(CCNC(=O)OC(C)(C)C)o1 | inconclusive: 18.4% | – | – |
| CC1C(=O)Nc2ccccc2N1C(=O)c1ccc(F)cc1F (stereo not drawn) | – | inconclusive: 0.651 µM [falling, partial curve, poor fit] | – |
| CC(C)(C)c1ccc(S(=O)(=O)/N=C2\C=C(NS(=O)(=O)c3ccccc3)C(=O)c3ccccc32)cc1 | – | – | inactive [at 46.1 µM] |
| O=c1cc(-c2ccccc2)[nH]c2cc(F)ccc12 | inconclusive: -6.33% | – | – |
| O=C(c1ccco1)c1cn(CC(=O)N2CCCCCC2)c2ccccc12 | inconclusive: -24.2% [at 9.22 µM] | – | – |
| CC(C)OCCCNc1ncc2c(n1)CC(c1ccc(N(C)C)cc1)CC2=O (stereo not drawn) | – | inconclusive: 3.26 µM [activator, partial curve] | – |
| Cn1c(=O)c2c(nc(Oc3ccccc3Br)n2C)n(C)c1=O | inconclusive: 16.2% | – | – |
| Cc1ccc(C(C(=O)NC2CCCC2)N(C(=O)c2csnn2)C2CCCC2)o1 (stereo not drawn) | inconclusive: -39.3% | – | – |
| CCCc1cc(C(=O)Nc2cnn(Cc3ccc(F)cc3)c2)no1 | inconclusive: 11.3% | – | – |
| CC(C)NC(=S)N1CCN(S(=O)(=O)c2cccc(C(F)(F)F)c2)CC1 | inconclusive: -15.2% | – | – |
| NC(=O)c1ccc[n+](CC(=O)OCCC23CC4CC(CC(C4)C2)C3)c1 | inconclusive: -20.1% | – | – |
| C=CCNC(=S)N1CC2(C)CN(C(=S)NCC=C)CC(C)(C1)C2=O | inactive: -3.79% | – | – |

Source: PubChem BioAssay AID2685 (National Center for Advancing Translational Sciences (NCATS), 2010)
